Experimental data as given in PubChem BioAssay AID222 (DTP/NCI, 2004).
The list does not hold the whole screen: it gathers tests that were run many times, whatever their T/C, doses with no T/C, and many T/C values between a quarter and a half above the control. Further doses and runs are listed elsewhere. T/C: endpoint of the treated group in % of that of the vehicle group. Some doses have a count of surviving animals in place of a T/C: the source holds a T/C of zero for them, seemingly a mark for toxic or unscored doses. Some survivor counts are full or nearly so, which does not show that the dose was tolerated: survival well below the control is almost never listed, so the zero probably covers shortened survival too. Survivors were counted at the toxicity check, usually on the fifth day, unless a day is given; later deaths do not show. Schedules are NCI's codes, read here as Q, the interval in days (D) or hours (H), X, the number of doses. Signs of the kind (2×) count equal records among those shown. Some entries were tested several times; their values stand side by side, smallest first. Some schedules carry Z or #; the key to these is not given. For survival time, this PubChem deposit counts one and a half times the control or more as active, and values a quarter to a half above the control carry no call in these data; other NCI protocols may use other cut-offs. Some T/C values are followed by the survivors on the day toxicity was checked, most often the fifth; without a count, all were alive then. Starred links: 1 amine or outer side, 2 acyl side, 3 side chain; linkers in the order of their positions; H or OH if unused. Positions of bridges follow the written chain, without caps; N, C: chain ends. Non-standard residues stand in square brackets, D forms with d. Residues, ends and D or L forms follow the SMILES beside them. Chains are numbered I, II in the order given. Actinocin(1to9) = Cc1c2oc3c(C)ccc(C(=O)[*:2])c3nc-2c(C(=O)[*:1])c(N)c1=O; NMeV = CN[CH](C(=O)O)C(C)C; Aze = O=C(O)[CH]1CCN1; Sar = CNCC(=O)O

Tested on: C57BL/6 mice, intracerebral ependymoblastoma, median survival T/C
Experiment: NCI In Vivo Anticancer Drug Screen. Data for tumor model Ependymoblastoma (intracerebral) in C57BL/6 mice
Details: T/C endpoint: median survival time, higher T/C = longer survival
Procedure: The antitumor activity of compounds was measured in mice bearing transplantable tumors. Survival or tumor size were measured and the results are expressed as the measurement made in the treated group (T) divided by the measurement made in the vehicle treated control group (C). The tumor model used in this assay is Ependymoblastoma (intracerebral) in C57BL/6 mice

[1] = dose: 1.0 mg/kg/injection, schedule: Q01DX001 (ip), vehicle: saline
[2] = dose: 16.0 mg/kg/injection, schedule: Q01DX005 (ip), vehicle: saline with Tween-80

CCC1=C[C@H]2CN(CCc3c([nH]c4ccccc34)[C@@](C(=O)OC)(c3cc4c(cc3OC)N(C)[C@H]3[C@@](O)(C(=O)NC)[C@H](OC(C)=O)[C@]5(CC)C=CCN6CC[C@]43[C@@H]65)C2)C1
survivor count (dose: 1.6 mg/kg/injection, schedule: Q01DX005 (ip), vehicle: Klucel (hydroxypropylcellulose) (HPC)): 6 of 6
survivor count (dose: 3.2 mg/kg/injection, schedule: Q01DX005 (ip), vehicle: Klucel (hydroxypropylcellulose) (HPC)): 6 of 6
survivor count (dose: 6.4 mg/kg/injection, schedule: Q01DX005 (ip), vehicle: Klucel (hydroxypropylcellulose) (HPC)): 2 of 6
survivor count (dose: 12.8 mg/kg/injection, schedule: Q01DX005 (ip), vehicle: Klucel (hydroxypropylcellulose) (HPC)): 1 of 6

CN(C)CCCNc1c2ccccc2nc2cccc([N+](=O)[O-])c12
survivor count (dose: 0.06 mg/kg/injection, schedule: Q## X006 (ip), vehicle: saline): 10 of 10
survivor count (dose: 0.12 mg/kg/injection, schedule: Q01DX005 (ip), vehicle: saline): 4 of 10
survivor count (dose: 0.12 mg/kg/injection, schedule: Q## X006 (ip), vehicle: saline): 10 of 10
survivor count (dose: 0.25 mg/kg/injection, schedule: Q01DX005 (ip), vehicle: saline): 3 of 10, 7 of 10, 9 of 10
survivor count (dose: 0.25 mg/kg/injection, schedule: Q## X006 (ip), vehicle: saline): 10 of 10
T/C (dose: 0.25 mg/kg/injection, schedule: Q#A X002 (ip), vehicle: saline): 125 % of control [8 of 10 alive]
T/C (dose: 0.5 mg/kg/injection, schedule: Q01DX001 (ip), vehicle: saline): 86, 89 (2×), 90 % of control [3 of 10 alive]
survivor count (dose: 0.5 mg/kg/injection, schedule: Q01DX005 (ip), vehicle: saline): 0 of 10 and 2 of 10
survivor count (dose: 0.5 mg/kg/injection, schedule: Q#A X002 (ip), vehicle: saline): 1 of 10
T/C [1]: 91 % of control [4 of 10 alive]
survivor count [1]: 4 of 10, 8 of 10, 10 of 10
survivor count (dose: 1.0 mg/kg/injection, schedule: Q01DX001 (oral), vehicle: saline): 5 of 10
survivor count (dose: 1.0 mg/kg/injection, schedule: Q01DX005 (ip), vehicle: saline): 0 of 10 and 1 of 10
survivor count (dose: 2.0 mg/kg/injection, schedule: Q01DX001 (ip), vehicle: saline): 2 of 10 and 9 of 10
survivor count (dose: 4.0 mg/kg/injection, schedule: Q01DX001 (ip), vehicle: saline): 0 of 10 and 1 of 10
survivor count (dose: 4.0 mg/kg/injection, schedule: Q01DX001 (oral), vehicle: saline): 6 of 10
survivor count (dose: 4.0 mg/kg/injection, schedule: Q#A X002 (ip), vehicle: saline): 0 of 10
survivor count (dose: 8.0 mg/kg/injection, schedule: Q01DX001 (ip), vehicle: saline): 0 of 10
survivor count (dose: 16.0 mg/kg/injection, schedule: Q01DX001 (oral), vehicle: saline): 1 of 10
survivor count (dose: 31.2 micrograms/kg/injection, schedule: Q01DX005 (ip), vehicle: saline): 10 of 10
T/C (dose: 125.0 micrograms/kg/injection, schedule: Q01DX005 (ip), vehicle: saline, evaluated on day 45): 94 % of control
T/C (dose: 125.0 micrograms/kg/injection, schedule: Q01DX005 (ip), vehicle: saline, evaluated on day 60): 92 and 96 % of control
survivor count (dose: 125.0 micrograms/kg/injection, schedule: Q01DX005 (ip), vehicle: saline): 6 of 10
survivor count (dose: 250.0 micrograms/kg/injection, schedule: Q01DX005 (ip), vehicle: saline): 10 of 10 (2×)
survivor count (dose: 500.0 micrograms/kg/injection, schedule: Q01DX005 (ip), vehicle: saline): 10 of 10
survivor count (dose: 1000.0 micrograms/kg/injection, schedule: Q01DX005 (ip), vehicle: saline): 2 of 10

Cc1c2oc3c(C)ccc(C(=O)NC4C(=O)NC(C(C)C)C(=O)N5CCCC5C(=O)N(C)CC(=O)N(C)C(C(C)C)C(=O)OC4C)c3nc-2c(C(=O)NC2C(=O)NC(C(C)C)C(=O)N3CCC3C(=O)N(C)CC(=O)N(C)C(C(C)C)C(=O)OC2C)c(N)c1=O (stereo not given) (I: TV[Aze][Sar][NMeV] / II: TVP[Sar][NMeV]; ester I:1-I:C, II:1-II:C; linker I:N-II:N via Actinocin(1to9); configuration not given here)
survivor count (dose: 200.0 micrograms/kg/injection, schedule: Q01DX005 (ip), vehicle: saline): 5 of 6
survivor count (dose: 400.0 micrograms/kg/injection, schedule: Q01DX005 (ip), vehicle: saline): 3 of 6
survivor count (dose: 800.0 micrograms/kg/injection, schedule: Q01DX005 (ip), vehicle: saline): 0 of 6

Cc1nc(N)nc(N)c1-c1ccc(Cl)c(Cl)c1
survivor count (dose: 2.0 mg/kg/injection, schedule: Q01DX005 (ip), vehicle: saline with Tween-80): 10 of 10
survivor count (dose: 4.0 mg/kg/injection, schedule: Q01DX005 (ip), vehicle: saline with Tween-80): 10 of 10
survivor count (dose: 4.0 mg/kg/injection, schedule: Q04DX003 (ip), vehicle: saline): 8 of 8
survivor count (dose: 8.0 mg/kg/injection, schedule: Q01DX005 (ip), vehicle: saline with Tween-80): 8 of 10 and 10 of 10
survivor count (dose: 10.0 mg/kg/injection, schedule: Q04DX003 (ip), vehicle: saline): 6 of 8
survivor count [2]: 9 of 10 and 10 of 10

COc1cc2c3c(c1)-c1c(ccc(OC)c1OC)CC3N(CCN(CCCl)CCCl)CC2 (stereo not given)
survivor count [2]: 3 of 6
survivor count (dose: 32.0 mg/kg/injection, schedule: Q01DX005 (ip), vehicle: saline with Tween-80): 1 of 6
survivor count (dose: 64.0 mg/kg/injection, schedule: Q01DX005 (ip), vehicle: saline with Tween-80): 1 of 6 and 4 of 6

O=c1c(O)c(-c2ccc(O)c(O)c2)oc2cc(O)cc(O)c12
survivor count (dose: 200.0 mg/kg/injection, schedule: Q01DX005 (ip), vehicle: Klucel (hydroxypropylcellulose) (HPC)): 9 of 10
survivor count (dose: 400.0 mg/kg/injection, schedule: Q01DX005 (ip), vehicle: Klucel (hydroxypropylcellulose) (HPC)): 7 of 10
survivor count (dose: 400.0 mg/kg/injection, schedule: Q01DX005 (ip), vehicle: other): 7 of 10
survivor count (dose: 800.0 mg/kg/injection, schedule: Q01DX005 (ip), vehicle: Klucel (hydroxypropylcellulose) (HPC)): 6 of 10
survivor count (dose: 800.0 mg/kg/injection, schedule: Q01DX005 (ip), vehicle: other): 0 of 10

O=[N+]([O-])O.[Ga]
survivor count (dose: 64.0 mg/kg/injection, schedule: Q01DX005 (ip), vehicle: saline): 10 of 10
survivor count (dose: 128.0 mg/kg/injection, schedule: Q01DX005 (ip), vehicle: saline): 10 of 10
survivor count (dose: 256.0 mg/kg/injection, schedule: Q01DX005 (ip), vehicle: saline): 8 of 10
